# Results published in PubChem BioAssay AID1347423 (Functional Genomics Laboratory (NCATS/FGL), 2020).
# In all, about 52,000 sequences went through this assay and about 210 (0.4%) were called active.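 How the source made its calls: active means gene whose silencing raises cell survival under the drug, median off-target-corrected z-score across its silencing RNAs 2 or more; inactive means the rest.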 The list shows a part of the results.
# Assay: Resistance to Poly (ADP-Ribose) Polymerase inhibitor: Gene Identification via Genome-wide siRNA Screen
# Conditions: mouse BRCA2 R2336H ES cells, olaparib, CellTiter-Glo viability; active compounds read high
# In short: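 Mouse BRCA2 R2336H ES cells were reverse-transfected with siRNA (20 nM final), treated at 48 h with 500 nM olaparib, and read by CellTiter-Glo after 72 h. Scores: MAD-based z per siRNA, median per gene, seed off-target correction.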
row,Sequence,z-score
1,GGAAGCUGUCCAAAAUGAGTT against Hnf4a,inactive: -0.101
2,GGCUGUAUCCUGACAGCAATT against Olfr244,inactive: 0.191
3,GGACAACGUGGACUACUGGTT against Pcdh15,inactive: -0.904
4,GGCAAUCUACUCAUUGUUGTT against Olfr1239,inactive: 0.506
5,GGUGGUAAAAGAUACGACCTT against Atp6v1e1,inactive: -0.805
6,GGAGAUGAAGAGGUUGGUUTT against Olig3,inactive: -0.366
7,CCCUAUGUUCUUUGUCUAUTT against Dbccr1,inactive: 0.316
8,GCUCAAUGCAGAAGGACGGTT against 1700058C13Rik,inactive: -0.383
9,CCAUAGCUGAUACUGAUGCTT against 2210421G13Rik,inactive: -0.638
10,GGGCUUGUGGCUUUAGUAUTT against AI836003,inactive: -1.52
11,GAACGACACAAGGCCUUCATT against Olfr585,inactive: 1.99
12,GGUUUUCCUAAACUCUUGATT against Usp6nl,inactive: -0.1
13,GCCCGUGUGUAAGUGCAAATT against AY100450,inactive: 0.989
14,GGAACACCUACAGUAUAAATT against G431001I09Rik,inactive: 0.325
15,GGACCCAUGAGGUUAACUUTT against D15Ertd781e,inactive: -1.18
16,GGACUCUGAAACCAUUAAATT against Fmo4,inactive: -1.21
17,GGGCAUUAAAGAAUCCAUUTT against Olfr1008,inactive: 0.722
18,GGCUGAAAACAUCGUGGUCTT against Sncg,inactive: 0.792
19,GGACCUUGGAUAUAAAGGUTT against B430110G05Rik,inactive: 0.331
20,GGACAAGUAUGAAUGUCUATT against Ptk2b,inactive: -1.18
21,GCUGCGUUACUGGAAGUUUTT against Loxl2,inactive: -0.526
22,GGGAGGUGAAACUGAGAAUTT against Mcpt4,inactive: -1.38
23,GGUCCCUUGAUGUCGAUUATT against Simp-pending,inactive: -0.645
24,GGUGGUUUAACUGGAUAUUTT against BC017133,inactive: -1.98
25,GGUGAAGAUGGACUCUCUGTT against Rg9mtd3,inactive: -0.193
26,GGUAACACCUUCCUUUAAGTT against 6.33E+19,inactive: 0.422
27,GGCAUUUGAAGAUGAAAUGTT against Bzw2,inactive: 0.163
28,GGUCAUGUCCAUCCCAAAGTT against D5Ertd40e,inactive: 0.835

# In another format: results already given.
row	Sequence	z-score
2	GGCUGUAUCCUGACAGCAATT against Olfr244	inactive: 0.191
10	GGGCUUGUGGCUUUAGUAUTT against AI836003	inactive: -1.52
11	GAACGACACAAGGCCUUCATT against Olfr585	inactive: 1.99
13	GCCCGUGUGUAAGUGCAAATT against AY100450	inactive: 0.989
18	GGCUGAAAACAUCGUGGUCTT against Sncg	inactive: 0.792
24	GGUGGUUUAACUGGAUAUUTT against BC017133	inactive: -1.98
